Measurements published in patent US6372790B1, “Pharmaceutical composition comprising a combination of metformin and fibrate, and its use for the preparation of medicines intended to reduce hyperglycaemia” (Merck Patent Gesellschaft mit beschrankter Haftung, priority 1998, dated 2002).
At least one structure is not confirmed: it was looked up by name or label, or the drawing left a doubt.

Assays:
[1] = test system: NIDD STZ rats; assay: Streptozotocin-induced non-insulin-dependent diabetes (NIDD) rat model: glycaemia, cholesterol, triglycerides; assay type: in vivo, male Wistar rats; conditions: STZ diabetic rats; fibrate alone
Experimental: Non-insulin-dependent diabetes (NIDD) is induced by injecting streptozotocin into male wistar rats. […] The procedure followed is as follows. […] Two weeks after this treatment, blood is taken and the glycaemia is measured. […] The animals then receive, orally, either metformin alone, or a fibrate alone, or a combination of the two in the doses indicated in Table 1 below. 23 days after the injection of streptozotocin, the animals are sacrificed and the following parameters are determined: glycaemia, cholesterol and triglycerides. […] The Student t test is carried out to evaluate the significance of the results obtained.

[2] = test system: diabetic patients; conditions: diabetic patients treated simultaneously with sulphonylurea; cited from earlier work

Row | Compound | Antihyperglycaemic properties when administered alone [1] | Effect on the seric glucose level [2]
1 | CC(C)(Oc1ccc(CCNC(=O)c2ccc(Cl)cc2)cc1)C(=O)O [Bezafibrate, bezafibrate] | show evidence of antihyperglycaemic properties | –
2 | CCOC(=O)C(C)(C)Oc1ccc(Cl)cc1 [Clofibrate, clofibrate] | – | absence of an effect
3 | CC(C)OC(=O)C(C)(C)Oc1ccc(C(=O)c2ccc(Cl)cc2)cc1 [Fenofibrate, fenofibrate] | show evidence of antihyperglycaemic properties | –
